Data on one substance can be found in paper doi:10.1101/2025.05.08.652952.

Chains of the proteins cited; added tags and fusions are not shown. Lines headed by an entry give the natural chain unless they say otherwise; changes in a name come on top.
UniProt P30052: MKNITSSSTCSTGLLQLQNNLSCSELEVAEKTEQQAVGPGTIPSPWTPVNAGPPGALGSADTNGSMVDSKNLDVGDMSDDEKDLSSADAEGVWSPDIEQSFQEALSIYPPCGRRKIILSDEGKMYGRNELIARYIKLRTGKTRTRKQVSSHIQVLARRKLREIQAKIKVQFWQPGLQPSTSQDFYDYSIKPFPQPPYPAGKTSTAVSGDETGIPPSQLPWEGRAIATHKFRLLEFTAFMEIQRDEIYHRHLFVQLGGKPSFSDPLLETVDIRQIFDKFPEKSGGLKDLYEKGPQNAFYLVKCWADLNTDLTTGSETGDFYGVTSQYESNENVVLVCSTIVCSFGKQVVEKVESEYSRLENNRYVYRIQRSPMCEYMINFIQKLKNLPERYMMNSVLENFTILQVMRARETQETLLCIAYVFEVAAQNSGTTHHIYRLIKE

These are yes or no findings as the source states them, for the method shown. Binding seen in cells or lysates may run through a third protein. Binding can be weak; no strength is given. Sequences can lack the tags named with a protein.

The assay addresses T1, Fat intracellular domain, 3xFLAG-tagged (pAc-ftICD-3xFLAG) (Drosophila melanogaster) (UniProt P33450).
T1 sequence: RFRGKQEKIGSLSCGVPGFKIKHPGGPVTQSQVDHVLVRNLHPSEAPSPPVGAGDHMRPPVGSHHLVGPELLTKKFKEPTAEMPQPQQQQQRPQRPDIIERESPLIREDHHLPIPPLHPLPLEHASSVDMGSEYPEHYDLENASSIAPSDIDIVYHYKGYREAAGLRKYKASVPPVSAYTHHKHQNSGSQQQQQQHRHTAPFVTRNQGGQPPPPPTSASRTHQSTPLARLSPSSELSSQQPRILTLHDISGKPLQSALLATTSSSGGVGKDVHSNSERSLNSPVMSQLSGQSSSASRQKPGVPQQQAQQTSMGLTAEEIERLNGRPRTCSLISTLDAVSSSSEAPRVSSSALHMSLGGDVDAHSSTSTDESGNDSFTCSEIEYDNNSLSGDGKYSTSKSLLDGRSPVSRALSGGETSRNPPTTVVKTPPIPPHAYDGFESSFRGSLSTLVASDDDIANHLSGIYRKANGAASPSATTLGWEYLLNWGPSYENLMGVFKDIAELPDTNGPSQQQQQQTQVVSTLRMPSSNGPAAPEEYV
Put plainly: co-IP.

Turning to “Scalloped C-terminal part, HSV-tagged (pAc-HSV-sdC) (from UniProt P30052) (domain or fragment)”, the binding entry was “binds”.
